According to PMC10229567:
These are yes or no findings as the source states them, for the method shown. In cells and extracts the contact can be indirect. Binding can be weak; no strength is given.

The chains behind the UniProt entries cited, without tags or fusion partners. Where a name states a change or a piece, a line headed by the entry shows the natural chain unless it says otherwise.
UniProt Q15388: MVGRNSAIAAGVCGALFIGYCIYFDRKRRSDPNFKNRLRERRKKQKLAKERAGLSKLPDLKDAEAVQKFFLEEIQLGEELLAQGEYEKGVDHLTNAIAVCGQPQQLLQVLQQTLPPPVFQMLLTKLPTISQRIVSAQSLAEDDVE
UniProt Q02127: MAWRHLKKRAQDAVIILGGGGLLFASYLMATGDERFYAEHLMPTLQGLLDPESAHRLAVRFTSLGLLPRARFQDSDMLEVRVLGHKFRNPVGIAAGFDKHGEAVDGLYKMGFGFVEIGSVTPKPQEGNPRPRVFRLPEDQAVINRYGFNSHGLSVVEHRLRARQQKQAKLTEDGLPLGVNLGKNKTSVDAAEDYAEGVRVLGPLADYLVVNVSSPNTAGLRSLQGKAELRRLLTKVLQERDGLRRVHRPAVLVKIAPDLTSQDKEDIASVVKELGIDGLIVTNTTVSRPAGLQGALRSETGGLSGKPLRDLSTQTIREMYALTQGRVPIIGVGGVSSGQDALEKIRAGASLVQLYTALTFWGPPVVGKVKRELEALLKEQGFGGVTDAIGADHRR
UniProt P58215: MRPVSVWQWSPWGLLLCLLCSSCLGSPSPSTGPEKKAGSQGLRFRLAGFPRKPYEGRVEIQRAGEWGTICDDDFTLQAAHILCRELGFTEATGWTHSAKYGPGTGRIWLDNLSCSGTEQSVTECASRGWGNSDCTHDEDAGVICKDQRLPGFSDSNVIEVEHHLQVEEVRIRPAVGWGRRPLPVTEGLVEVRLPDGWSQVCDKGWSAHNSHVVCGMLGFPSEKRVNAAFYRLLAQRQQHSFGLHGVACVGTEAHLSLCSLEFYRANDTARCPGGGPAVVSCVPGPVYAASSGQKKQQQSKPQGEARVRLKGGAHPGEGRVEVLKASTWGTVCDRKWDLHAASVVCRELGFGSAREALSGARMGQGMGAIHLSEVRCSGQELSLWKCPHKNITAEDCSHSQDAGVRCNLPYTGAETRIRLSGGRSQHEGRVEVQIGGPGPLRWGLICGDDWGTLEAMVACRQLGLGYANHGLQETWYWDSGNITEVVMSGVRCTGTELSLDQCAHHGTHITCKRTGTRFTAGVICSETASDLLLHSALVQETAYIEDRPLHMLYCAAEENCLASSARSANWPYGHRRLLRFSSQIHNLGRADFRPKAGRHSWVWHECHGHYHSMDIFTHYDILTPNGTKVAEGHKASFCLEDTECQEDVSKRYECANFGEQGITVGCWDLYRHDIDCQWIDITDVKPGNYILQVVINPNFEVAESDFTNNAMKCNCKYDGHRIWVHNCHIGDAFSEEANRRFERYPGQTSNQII

Columns and labels:
[1] = target: TOM20 (receptor of the translocase of the outer mitochondrial membrane complex) (human (endogenous in Huh7)) (UniProt Q15388); test: co-IP; Huh7 cells stably expressing WT, 1-40 deleted or K35/36A LOXL3-FLAG, starved for over 12 h and treated with EGF for half an hour
[2] = target: Dihydroorotate dehydrogenase (DHODH) (human (endogenous in Huh7)) (UniProt Q02127); test: co-IP; Huh7 cells expressing WT, S704A or S704D LOXL3-FLAG, treated with MG132 for 12 h

WT LOXL3-FLAG (from UniProt P58215)
binding [1]: binds | binding [2]: binds
